Results taken from publication PMC5845016.
Results are given in words; binding and its absence hold for the method and conditions named. In cells and extracts the contact can be indirect. These calls come from enrichment with a bait or labelling near it, and not all partners need be listed. Blank lines part the entries; values can stand above or below the binder they belong to.

Target: 14-3-3 (bait; construct not stated for these experiments)
Assay: affinity purification with mass spectrometry; SILAC; 14-3-3 pull downs from cells irradiated with UV light against cells pretreated with the p38 inhibitor and then irradiated; 14-3-3 as bait

- binding: binds
B1: CPSF1 (protein, UniProt Q10570 1-1443)
chain: MYAVYKQAHPPTGLEFSMYCNFFNNSERNLVVAGTSQLYVYRLNRDAEALTKNDRSTEGKAHREKLELAASFSFFGNVMSMASVQLAGAKRDALLLSFKDAKLSVVEYDPGTHDLKTLSLHYFEEPELRDGFVQNVHTPRVRVDPDGRCAAMLVYGTRLVVLPFRRESLAEEHEGLVGEGQRSSFLPSYIIDVRALDEKLLNIIDLQFLHGYYEPTLLILFEPNQTWPGRVAVRQDTCSIVAISLNITQKVHPVIWSLTSLPFDCTQALAVPKPIGGVVVFAVNSLLYLNQSVPPYGVALNSLTTGTTAFPLRTQEGVRITLDCAQATFISYDKMVISLKGGEIYVLTLITDGMRSVRAFHFDKAAASVLTTSMVTMEPGYLFLGSRLGNSLLLKYTEKLQEPPASAVREAADKEEPPSKKKRVDATAGWSAAGKSVPQDEVDEIEVYGSEAQSGTQLATYSFEVCDSILNIGPCANAAVGEPAFLSEEFQNSPEPDLEIVVCSGHGKNGALSVLQKSIRPQVVTTFELPGCYDMWTVIAPVRKEEEDNPKGEGTEQEPSTTPEADDDGRRHGFLILSREDSTMILQTGQEIMELDTSGFATQGPTVFAGNIGDNRYIVQVSPLGIRLLEGVNQLHFIPVDLGAPIVQCAVADPYVVIMSAEGHVTMFLLKSDSYGGRHHRLALHKPPLHHQSKVITLCLYRDLSGMFTTESRLGGARDELGGRSGPEAEGLGSETSPTVDDEEEMLYGDSGSLFSPSKEEARRSSQPPADRDPAPFRAEPTHWCLLVRENGTMEIYQLPDWRLVFLVKNFPVGQRVLVDSSFGQPTTQGEARREEATRQGELPLVKEVLLVALGSRQSRPYLLVHVDQELLIYEAFPHDSQLGQGNLKVRFKKVPHNINFREKKPKPSKKKAEGGGAEEGAGARGRVARFRYFEDIYGYSGVFICGPSPHWLLVTGRGALRLHPMAIDGPVDSFAPFHNVNCPRGFLYFNRQGELRISVLPAYLSYDAPWPVRKIPLRCTAHYVAYHVESKVYAVATSTNTPCARIPRMTGEEKEFETIERDERYIHPQQEAFSIQLISPVSWEAIPNARIELQEWEHVTCMKTVSLRSEETVSGLKGYVAAGTCLMQGEEVTCRGRILIMDVIEVVPEPGQPLTKNKFKVLYEKEQKGPVTALCHCNGHLVSAIGQKIFLWSLRASELTGMAFIDTQLYIHQMISVKNFILAADVMKSISLLRYQEESKTLSLVSRDAKPLEVYSVDFMVDNAQLGFLVSDRDRNLMVYMYLPEAKESFGGMRLLRRADFHVGAHVNTFWRTPCRGATEGLSKKSVVWENKHITWFATLDGGIGLLLPMQEKTYRRLLMLQNALTTMLPHHAGLNPRAFRMLHVDRRTLQNAVRNVLDGELLNRYLYLSTMERSELAKKIGTTPDIILDDLLETDRVTAHF

- binding: binds
B2: SMC1A (protein, UniProt Q14683 1-1233)
chain: MGFLKLIEIENFKSYKGRQIIGPFQRFTAIIGPNGSGKSNLMDAISFVLGEKTSNLRVKTLRDLIHGAPVGKPAANRAFVSMVYSEEGAEDRTFARVIVGGSSEYKINNKVVQLHEYSEELEKLGILIKARNFLVFQGAVESIAMKNPKERTALFEEISRSGELAQEYDKRKKEMVKAEEDTQFNYHRKKNIAAERKEAKQEKEEADRYQRLKDEVVRAQVQLQLFKLYHNEVEIEKLNKELASKNKEIEKDKKRMDKVEDELKEKKKELGKMMREQQQIEKEIKEKDSELNQKRPQYIKAKENTSHKIKKLEAAKKSLQNAQKHYKKRKGDMDELEKEMLSVEKARQEFEERMEEESQSQGRDLTLEENQVKKYHRLKEEASKRAATLAQELEKFNRDQKADQDRLDLEERKKVETEAKIKQKLREIEENQKRIEKLEEYITTSKQSLEEQKKLEGELTEEVEMAKRRIDEINKELNQVMEQLGDARIDRQESSRQQRKAEIMESIKRLYPGSVYGRLIDLCQPTQKKYQIAVTKVLGKNMDAIIVDSEKTGRDCIQYIKEQRGEPETFLPLDYLEVKPTDEKLRELKGAKLVIDVIRYEPPHIKKALQYACGNALVCDNVEDARRIAFGGHQRHKTVALDGTLFQKSGVISGGASDLKAKARRWDEKAVDKLKEKKERLTEELKEQMKAKRKEAELRQVQSQAHGLQMRLKYSQSDLEQTKTRHLALNLQEKSKLESELANFGPRINDIKRIIQSREREMKDLKEKMNQVEDEVFEEFCREIGVRNIREFEEEKVKRQNEIAKKRLEFENQKTRLGIQLDFEKNQLKEDQDKVHMWEQTVKKDENEIEKLKKEEQRHMKIIDETMAQLQDLKNQHLAKKSEVNDKNHEMEEIRKKLGGANKEMTHLQKEVTAIETKLEQKRSDRHNLLQACKMQDIKLPLSKGTMDDISQEEGSSQGEDSVSGSQRISSIYAREALIEIDYGDLCEDLKDAQAEEEIKQEMNTLQQKLNEQQSVLQRIAAPNMKAMEKLESVRDKFQETSDEFEAARKRAKKAKQAFEQIKKERFDRFNACFESVATNIDEIYKALSRNSSAQAFLGPENPEEPYLDGINYNCVAPGKRFRPMDNLSGGEKTVAALALLFAIHSYKPAPFFVLDEIDAALDNTNIGKVANYIKEQSTCNFQAIVISLKEEFYTKAESLIGVYPEQGDCVISKVLTFDLTKYPDANPNPNEQ
